Measurements published in publication PMC6359284 (Molecules, 2019).

Experiment: general procedure: Fmoc solid-phase peptide synthesis; NovaSyn TGR resin (0.25 mmol/g); HATU/DIPEA
Settings: whole synthesis, analytical RP-HPLC

Row | Substance | final HPLC purity
1 | Ac-VGDLTYLKK(FB) | >99%
2 | VGDLTYLKK(FB) | >96%
3 | FB-VGDLTYLKK(FB) | >99%
4 | VGDLTYLKK(FB)-PEG28 | >99%
5 | GIDLTSLTK(FB) | >97%
6 | FB-VGDLTYLKK | >99%
7 | Me-VGDLTYLKK(FB) | >99%
8 | Ac-VGDLTYLKK(FB)-PEG28 | >95%
9 | RGDLADLRK(FB) | >99%
10 | FB-VGDLTYLKK(FB)-PEG28 | >99%
11 | PEG12-VGDLTYLKK(FB) | >99%
